Laboratory results published in the supplement of paper PMC4604168 (melanoma cell lines).
The other results are listed elsewhere or left out. Repeats are few or missing, and single values can be far off.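 Imaging used 1,536-well plates; nuclei positive for cleaved PARP by antibody were divided by total DNA-stained nuclei to yield the apoptosis fraction. Doses for screening kept most cells viable, and cell lines differ markedly in resting and induced cleaved-PARP levels.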

Legend:
Test in all cases: cleaved PARP positive nuclei fraction relative to DMSO control; melanoma cells; higher = more apoptosis
Settings in all cases: library dose: low library concentration; 72 h
501Mel = system: 501Mel
A101D = system: A101D
A2058 = system: A2058
A375 = system: A375
C32 = system: C32
CBRC008 = system: CBRC008 (line from a melanoma biopsy)
CBRC014 = system: CBRC014 (line from a melanoma biopsy)
CBRC016 = system: CBRC016 (line from a melanoma biopsy)
CBRC017 = system: CBRC017 (line from a melanoma biopsy)

Structure (SMILES)	cleaved PARP positive nuclei fraction (501Mel)	cleaved PARP positive nuclei fraction (A101D)	cleaved PARP positive nuclei fraction (A2058)	cleaved PARP positive nuclei fraction (A375)	cleaved PARP positive nuclei fraction (C32)	cleaved PARP positive nuclei fraction (CBRC008)	cleaved PARP positive nuclei fraction (CBRC014)	cleaved PARP positive nuclei fraction (CBRC016)	cleaved PARP positive nuclei fraction (CBRC017)
Cn1cc(C2=C(c3cn(C4CCN(Cc5ccccn5)CC4)c4ccccc34)C(=O)NC2=O)c2ccccc21 [Enzastaurin] + Cc1nc(Nc2ncc(C(=O)Nc3c(C)cccc3Cl)s2)cc(N2CCN(CCO)CC2)n1 [dasatanib] (first compound 0.8 µM, partner dose 0.004 µM)	137%	116%	84.1%	33.2%	95.9%	30.4%	96.6%	84.3%	113%
C[C@]12O[C@H](C[C@]1(O)CO)n1c3ccccc3c3c4c(c5c6ccccc6n2c5c31)CNC4=O [Lestaurtinib] + NC1(c2ccc(-c3nc4ccn5c(=O)[nH]nc5c4cc3-c3ccccc3)cc2)CCC1 [MK2206] (first compound 0.004 µM, partner dose 0.4 µM)	352%	207%	74.2%	142%	68.5%	55.1%	281%	91.9%	86.6%
N#CC[C@H](C1CCCC1)n1cc(-c2ncnc3[nH]ccc23)cn1 [ruxolitinib] + N.N.[Cl][Pt][Cl] [cisplatin] (first compound 1 µM, partner dose 1.6 µM)	86.3%	97.9%	173%	100%	82%	327%	113%	264%	108%
CCN(CC)CCNC(=O)c1c(C)[nH]c(/C=C2\C(=O)Nc3ccc(F)cc32)c1C [sunitinib] + C[As](C)SC[C@H](NC(=O)CC[C@H](N)C(=O)O)C(=O)NCC(=O)O [Darinaparsin] (first compound 0.4 µM, partner dose 0.4 µM)	85.8%	145%	112%	120%	81.9%	110%	80.5%	53.3%	88.5%
C[C@]12O[C@H](C[C@]1(O)CO)n1c3ccccc3c3c4c(c5c6ccccc6n2c5c31)CNC4=O [Lestaurtinib] + N.N.[Cl][Pt][Cl] [cisplatin] (first compound 0.004 µM, partner dose 1.6 µM)	74.8%	149%	196%	232%	141%	112%	110%	155%	115%
C[As](C)SC[C@H](NC(=O)CC[C@H](N)C(=O)O)C(=O)NCC(=O)O [Darinaparsin] + Cn1nnc2c(C(N)=O)ncn2c1=O [temozolomide] (first compound 0.4 µM, partner dose 2 µM)	56.3%	45.3%	195%	115%	71%	89.9%	102%	173%	98.9%
COc1cc([C@@H]2c3cc4c(cc3[C@@H](O[C@@H]3O[C@@H]5CO[C@@H](C)O[C@H]5[C@H](O)[C@H]3O)[C@H]3COC(=O)[C@H]23)OCO4)cc(OC)c1O [etoposide] + Cn1cc(C2=C(c3cn(C4CCN(Cc5ccccn5)CC4)c4ccccc34)C(=O)NC2=O)c2ccccc21 [Enzastaurin] (first compound 0.02 µM, partner dose 0.8 µM)	44.9%	190%	118%	226%	69.7%	101%	102%	80.5%	103%
O=C(/C=C/c1cccnc1)NCCCCC1CCN(C(=O)c2ccccc2)CC1 + Cn1cc(C2=C(c3cn(C4CCN(Cc5ccccn5)CC4)c4ccccc34)C(=O)NC2=O)c2ccccc21 [Enzastaurin] (first compound 0.01 µM, partner dose 0.8 µM)	129%	87.7%	86.9%	538%	64%	3680%	110%	849%	467%
CN1CCN(c2ccc3nc(-c4c(N)c5c(F)cccc5[nH]c4=O)[nH]c3c2)CC1 [Dovitinib] + C[As](C)SC[C@H](NC(=O)CC[C@H](N)C(=O)O)C(=O)NCC(=O)O [Darinaparsin] (first compound 0.1 µM, partner dose 0.4 µM)	92.7%	106%	222%	201%	79.3%	32.5%	100%	118%	120%
Nc1nc(F)nc2c1ncn2[C@@H]1O[C@H](CO)[C@@H](O)[C@@H]1O [fludarabine] + C[As](C)SC[C@H](NC(=O)CC[C@H](N)C(=O)O)C(=O)NCC(=O)O [Darinaparsin] (first compound 0.2 µM, partner dose 0.4 µM)	13100%	201%	76.5%	2270%	86.4%	68.6%	102%	96.4%	73.3%
C[As](C)SC[C@H](NC(=O)CC[C@H](N)C(=O)O)C(=O)NCC(=O)O [Darinaparsin] + C[C@]1(c2nc3c(C(N)=O)cccc3[nH]2)CCCN1 [Veliparib] (first compound 0.4 µM, partner dose 1.4 µM)	69%	185%	146%	18.9%	197%	44.1%	85.7%	45.1%	81.1%
C[C@@H](Oc1cc(-c2cnn(C3CCNCC3)c2)cnc1N)c1c(Cl)ccc(F)c1Cl [Crizotinib] + C[As](C)SC[C@H](NC(=O)CC[C@H](N)C(=O)O)C(=O)NCC(=O)O [Darinaparsin] (first compound 0.2 µM, partner dose 0.4 µM)	135%	90.9%	108%	185%	83.2%	123%	104%	110%	118%
C[C@@H](N)c1ccc(C(=O)Nc2ccnc3[nH]ccc23)cc1 + C[As](C)SC[C@H](NC(=O)CC[C@H](N)C(=O)O)C(=O)NCC(=O)O [Darinaparsin] (first compound 0.4 µM, partner dose 0.4 µM)	76.8%	102%	229%	159%	80.2%	26.7%	136%	128%	105%
COc1cc([C@@H]2c3cc4c(cc3[C@@H](O[C@@H]3O[C@@H]5CO[C@@H](C)O[C@H]5[C@H](O)[C@H]3O)[C@H]3COC(=O)[C@H]23)OCO4)cc(OC)c1O [etoposide] + C[C@]12O[C@H](C[C@]1(O)CO)n1c3ccccc3c3c4c(c5c6ccccc6n2c5c31)CNC4=O [Lestaurtinib] (first compound 0.02 µM, partner dose 0.004 µM)	56.4%	60.4%	88.1%	154%	87.2%	36.2%	307%	68.1%	101%
C[C@]12O[C@H](C[C@]1(O)CO)n1c3ccccc3c3c4c(c5c6ccccc6n2c5c31)CNC4=O [Lestaurtinib] + Nc1cccc2c1CN(C1CCC(=O)NC1=O)C2=O [lenalidomide] (first compound 0.004 µM, partner dose 1 µM)	63.6%	40.6%	179%	95.7%	69.2%	140%	88.2%	63.9%	108%
C[C@]12O[C@H](C[C@]1(O)CO)n1c3ccccc3c3c4c(c5c6ccccc6n2c5c31)CNC4=O [Lestaurtinib] + CC(=O)c1c(C)c2cnc(Nc3ccc(N4CCNCC4)cn3)nc2n(C2CCCC2)c1=O [palbociclib] (first compound 0.004 µM, partner dose 0.04 µM)	105%	112%	117%	163%	108%	34.4%	115%	116%	117%
N.N.[Cl][Pt][Cl] [cisplatin] + Nc1nc(F)nc2c1ncn2[C@@H]1O[C@H](CO)[C@@H](O)[C@@H]1O [fludarabine] (first compound 1.6 µM, partner dose 0.2 µM)	3890%	50.9%	109%	7980%	68.3%	267%	89.2%	101%	88%
O=C(Nc1cc(C(F)(F)F)cc(C(F)(F)F)c1)c1cc(Cl)ccc1O + C[C@]12O[C@H](C[C@]1(O)CO)n1c3ccccc3c3c4c(c5c6ccccc6n2c5c31)CNC4=O [Lestaurtinib] (first compound 0.016 µM, partner dose 0.004 µM)	71.7%	96%	112%	126%	82.7%	158%	89.7%	135%	71%
Cn1cc(C2=C(c3cn(C4CCN(Cc5ccccn5)CC4)c4ccccc34)C(=O)NC2=O)c2ccccc21 [Enzastaurin] + Cn1sc(=O)n(Cc2ccccc2)c1=O [TDZD-8] (first compound 0.8 µM, partner dose 0.4 µM)	24.3%	64%	65%	162%	68%	35.7%	85.7%	81.4%	121%
Cn1cc(C2=C(c3cn(C4CCN(Cc5ccccn5)CC4)c4ccccc34)C(=O)NC2=O)c2ccccc21 [Enzastaurin] + CCN(CC)CCNC(=O)c1c(C)[nH]c(/C=C2\C(=O)Nc3ccc(F)cc32)c1C [sunitinib] (first compound 0.8 µM, partner dose 0.4 µM)	79.4%	87.7%	42.6%	49.5%	74.5%	203%	123%	77%	97.6%
O=C(Nc1cc(C(F)(F)F)cc(C(F)(F)F)c1)c1cc(Cl)ccc1O + Cn1cc(C2=C(c3cn(C4CCN(Cc5ccccn5)CC4)c4ccccc34)C(=O)NC2=O)c2ccccc21 [Enzastaurin] (first compound 0.016 µM, partner dose 0.8 µM)	79.5%	251%	140%	94%	63.2%	121%	91.5%	148%	106%
CN(c1ncccc1CNc1nc(Nc2ccc3c(c2)CC(=O)N3)ncc1C(F)(F)F)S(C)(=O)=O + N.N.[Cl][Pt][Cl] [cisplatin] (first compound 0.08 µM, partner dose 1.6 µM)	139%	44.8%	105%	232%	93.2%	208%	107%	180%	86.9%
Cn1cc(C2=C(c3cn(C4CCN(Cc5ccccn5)CC4)c4ccccc34)C(=O)NC2=O)c2ccccc21 [Enzastaurin] + C[As](C)SC[C@H](NC(=O)CC[C@H](N)C(=O)O)C(=O)NCC(=O)O [Darinaparsin] (first compound 0.8 µM, partner dose 0.4 µM)	103%	60.3%	144%	152%	66%	192%	86.6%	67.8%	106%

Looked up above.
cleaved PARP positive nuclei fraction (A101D) with N.N.[Cl][Pt][Cl] [cisplatin] + Nc1nc(F)nc2c1ncn2[C@@H]1O[C@H](CO)[C@@H](O)[C@@H]1O [fludarabine] (first compound 1.6 µM, partner dose 0.2 µM) reads 50.9%
cleaved PARP positive nuclei fraction (A101D) with COc1cc([C@@H]2c3cc4c(cc3[C@@H](O[C@@H]3O[C@@H]5CO[C@@H](C)O[C@H]5[C@H](O)[C@H]3O)[C@H]3COC(=O)[C@H]23)OCO4)cc(OC)c1O [etoposide] + Cn1cc(C2=C(c3cn(C4CCN(Cc5ccccn5)CC4)c4ccccc34)C(=O)NC2=O)c2ccccc21 [Enzastaurin] (first compound 0.02 µM, partner dose 0.8 µM) reads 190%
